Here are results for one molecule from publication PMC8346855.

No constants are given. Whether binding was seen depends on the method and setting. Some binding calls cover weakened binding; strength is not graded here.

The target in this test is Gβ1 of bovine transducin (bovine). The test is described as follows: cross-linking + other: high-mass MALDI-MS; Gαi incubated with Gβ and Gγ, cross-linked with the shorter cross-linkers DSS (spacer arm 11.4 Å) or BS(PEG)5 (21.7 Å); both purified.

B1: Gγ1 of bovine transducin (protein)
chain: MPVINIEDLTEKDKLKMEVDQLKKEVTLERMLVSKCCEEFRDYVEERSGEDPLVKGIPEDKNPFKELKGGCVIS
With B1, the binding entry is given as “binds”.
